Laboratory results taken from PubChem BioAssay AID624297 (National Center for Advancing Translational Sciences (NCATS), 2012).
The campaign covered roughly 340,000 compounds. About 6,200 (1.8%) were called active. The shares of active, inactive and inconclusive entries below differ from those in the screen. The call rests on the fitted dose curve; in most records, active means well fitted activation curve with a large enough effect; inconclusive means small, poorly fitted or top-dose-only effect; inactive means no such curve, though single readings can be large or run the other way. A potency beside an inconclusive call is a rough fit, not a confirmed value.
Potency means the concentration at half of the fitted maximal effect.

Assay: A quantitative high throughput screen for small molecules that induce DNA re-replication in SW480 colon adenocarcinoma cells. Further: nearly all actives have a fitted effect of over 55% in size. On re-replication activation: % of control where 0% means no effect.
Settings: Hoechst DNA content imaging, 48 h; re-replication activation: at 46.1 µM (top of the series) unless noted
Outline: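 Image-based read-out: total Hoechst fluorescence of nuclei (405 nm excitation, 500-530 nm emission), with hits raising the fraction of high-intensity nuclei. SW480 colon cells incubated 48 hr with compounds at 37 C.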
With `CCOC(=O)CC(=O)CSc1nc2c(cc1C#N)CCCCC2` the Potency was inconclusive: 23.1 µM [activator, single point]. In the case of `COc1ccc2c(c1OC)C(=O)OC2Nc1nc(-c2cc3cc(Br)ccc3oc2=O)cs1` (stereo not given), the Potency is reported as inconclusive: 3.26 µM [activator, full curve]. In the case of `COc1ccc(NS(=O)(=O)c2cc(NC(=O)c3sccc3C)ccc2N2CCOCC2)cc1`, the Potency is reported as inconclusive: 20.6 µM [activator, single point]. In the case of `COc1cc(C2NC(=O)C(C#N)=C(S)N2c2ccc(C)cc2)ccc1OC(C)C` (stereo not given), the Potency is reported as inconclusive: 18.4 µM [activator, single point]. For `COc1ccc(NC(=O)CC2C(=O)N(c3cccc(OC)c3)C(=O)N2Cc2ccco2)cc1` (stereo not given), the “re-replication activation” value was inactive: 0.746%. In the case of `CC1SC(c2ccc(F)cc2)N(CCc2ccccc2)C1=O` (stereo not given), the Potency is reported as inconclusive: 2.91 µM [activator, partial curve]. In the case of `OC1(c2ccccc2)CC(c2ccccc2)c2ccccc2O1` (stereo not given), the Potency is reported as inconclusive: 20.6 µM [activator, single point]. In the case of `CCC1(C)Cc2c(sc3[nH]c(=S)n(Cc4ccccc4)c(=O)c23)CO1` (stereo not given), the Potency is reported as inconclusive: 20.6 µM [activator, single point]. For `Cc1cccc(CS(=O)(=O)c2cn(CC(=O)N3CCOCC3)c3ccccc23)c1`, the Potency was inconclusive: 6.51 µM [activator, partial curve, poor fit]. In the case of `Cc1cc(Br)c(Oc2cc(NN3CCCCC3)c([N+](=O)[O-])cc2[N+](=O)[O-])c(Br)c1`, the “re-replication activation” value is reported as inactive: -2.82%. In the case of `COCCCNC(=O)c1c(N)n(-c2cccc(S(N)(=O)=O)c2)c2nc3ccccc3nc12`, the Potency is reported as active: 20.6 µM. With `COc1ccc(NC(=S)N(CCc2c(C)[nH]c3ccc(C)cc23)Cc2cccnc2)cc1` the “re-replication activation” value was inactive: 3.32%. With `CC(C)N1CC(C(=O)Nc2ccc(F)c(Cl)c2)CC1=O` (stereo not given) the Potency was inconclusive: 29.1 µM [activator, single point]. For `CC(C)CCNC(=O)c1cc(S(=O)(=O)N2CCCCC2)ccc1N1CCOCC1`, the Potency was inconclusive: 29.1 µM [activator, single point]. For `COCCOc1cc(NC(=O)CS(=O)(=O)CC(=O)N(C)C)c(Cl)cc1Cl`, the “re-replication activation” value was inactive: -0.997%. For `CCCCn1c(C)csc1=Nc1cccnc1`, the “re-replication activation” value was inactive: -3.45%. In the case of `CC(=O)Nc1ccc(SCC(=O)NC(=O)c2ccccc2Br)cc1`, the “re-replication activation” value is reported as inactive: -4.05%. For `Cc1ccc(C(=O)Nc2ccc3c(c2)nc(CCNC(=O)c2ccco2)n3C)cc1`, the “re-replication activation” value was inactive: -5.94%. With `CC[C@]1(C(=O)OC)[C@H]2C(=O)N(Cc3ccccc3)C(=O)[C@H]2[C@H]2CN=C(SCc3ccccc3)N21` the “re-replication activation” value was inactive: -6.22%. For `CCN(CC(=O)Nc1ccccc1SC)Cc1nc2ccccc2c(=O)[nH]1`, the Potency was inconclusive: 16.4 µM [activator, single point]. For `CCN(c1ccccc1)S(=O)(=O)c1ccc(Cl)c(NC(=O)COC(=O)C2CC2C)c1` (stereo not given), the “re-replication activation” value was inactive: 8.44%. With `COc1ccc(S(=O)(=O)N(Cc2ccccc2)Cc2nc(-c3ccccc3)no2)cc1` the Potency was inconclusive: 9.2 µM [activator, partial curve, poor fit]. For `Cc1cc(=O)c2c(O)c3c(O)cc(=O)c4c3c3c(cc(O)c1c23)C(C)(C)C=4O`, the Potency was inconclusive: 5.96 µM [activator, full curve]. For `Cc1sc(N/N=C/c2cccnc2)nc1-c1ccccc1`, the Potency was inconclusive: 29.1 µM [activator, single point]. With `COc1ccccc1CNC(=O)C1CCN(C(=O)N(C)C)CC1` the “re-replication activation” value was inactive: -8.58%. For `N/C(=N\OC(=O)c1ccccc1)C(Cc1ccccc1)C(=O)NOC(=O)c1ccccc1` (stereo not given), the Potency was inconclusive: 18.4 µM [activator, single point]. With `C=CCn1c(CCNC(=O)c2cccs2)nnc1SCC(=O)c1ccc(Br)cc1` the Potency was inconclusive: 32.6 µM [activator, partial curve, poor fit]. With `O=C(C(=O)c1ccc(O)cc1)c1ccccc1` the Potency was inconclusive: 32.6 µM [activator, partial curve, poor fit]. In the case of `COc1ccccc1NC(=S)N(CCN1CCOCC1)Cc1ccccc1F`, the Potency is reported as inconclusive: 18.4 µM [activator, single point]. In the case of `CCN(CC)S(=O)(=O)c1ccc(NCCCn2ccnc2)c([N+](=O)[O-])c1`, the “re-replication activation” value is reported as inactive: -0.386%. For `Cc1[nH]c2ccccc2c1/C=C/C(=O)c1ccncc1`, the Potency was inconclusive: 11.6 µM [activator, partial curve, poor fit]. For `Cc1cc(C)c2nc(-c3ccccn3)cc(C(=O)NCCc3ccc(S(N)(=O)=O)cc3)c2c1`, the Potency was inconclusive: 29.1 µM [activator, single point]. For `COc1ccc(C=CC(=O)c2c(OC)cc(OC)c(OC)c2O)cc1`, the Potency was inconclusive: 29.1 µM [activator, single point]. In the case of `COc1cc2c(cc1NC(=O)C(C)Sc1cccc[n+]1[O-])oc1ccccc12` (stereo not given), the “re-replication activation” value is reported as inactive: 0.289%. With `CC(NC(=O)COc1ccccc1)C(=O)NCc1ccccc1Cl` (stereo not given) the re-replication activation was inconclusive: -25.5% [activator]. For `O=C(CN(Cc1cccs1)S(=O)(=O)c1ccc(S(=O)(=O)NC2CCCCC2)cc1)Nc1ccccc1`, the “re-replication activation” value was inactive: 29.4%. In the case of `C#CCOc1nc(C)cc(C)c1S(=O)(=O)c1ccccc1C`, the “re-replication activation” value is reported as inactive: 3.7%. With `COc1cc(C(=O)c2cocc2C(=O)c2ccc3c(c2)OCO3)cc(OC)c1OC` the Potency was active: 1.84 µM. With `CCOC(=O)N1CCN(S(=O)(=O)c2ccc(C(=O)NNc3nc4c(C)cccc4s3)cc2)CC1` the Potency was inconclusive: 25.9 µM [activator, single point]. With `CCCC(=O)NC(c1ccco1)c1cc([N+](=O)[O-])c2cccnc2c1O` (stereo not given) the Potency was inconclusive: 29.1 µM [activator, single point]. With `COc1ccccc1C(C)NC(=O)CN(C)CC(=O)Nc1c(C)cccc1C` (stereo not given) the “re-replication activation” value was inactive: 1.19%. In the case of `COc1ccc2cc(S(=O)(=O)NC3CC(C)(C)NC(C)(C)C3)ccc2c1`, the Potency is reported as inconclusive: 29.1 µM [activator, single point]. With `CCc1noc(C)c1C(=O)Nc1nc(-c2ccc(OC)c(OC)c2)cs1` the Potency was inconclusive: 29.1 µM [activator, single point]. For `C=C1CC(C(=O)N/N=C/c2ccc(O)cc2)C1`, the Potency was active: 16.4 µM. In the case of `Cc1cccc(N2CC(O)(c3cccs3)[N+]3=C2CCCC3)c1C` (stereo not given), the Potency is reported as inconclusive: 3.66 µM [activator, full curve, poor fit]. In the case of `COc1ccccc1C(=O)Nc1nnc(CCc2ccccc2)s1`, the Potency is reported as active: 6.51 µM. With `Cc1cc(-c2nc3ncccc3o2)ccc1NC(=S)NC(=O)C(C)C` the Potency was inconclusive: 6.51 µM [activator, full curve, poor fit]. With `CC(=O)Nc1ccc(OCCOc2ccc([N+](=O)[O-])cc2)cc1` the re-replication activation was inconclusive: 31.5% [activator]. In the case of `COc1ccc(NC(=O)C2CCCN2C(=O)OC(C)(C)C)cc1` (stereo not given), the “re-replication activation” value is reported as inactive: -1.28%. In the case of `N#Cc1c(Nc2ccccc2Cl)s[nH]c1=O`, the Potency is reported as inconclusive: 18.4 µM [activator, single point]. For `Cc1ccsc1-c1n[nH]c(=S)n1CC(C)C`, the “re-replication activation” value was inactive: -3.49%. For `CCOc1cccc(OCCOc2ccc(C(=O)c3ccccc3)cc2)c1`, the Potency was inconclusive: 6.51 µM [activator, single point]. In the case of `Cc1ccc(NC(=O)c2cc3c(s2)CCCC3)cc1`, the “re-replication activation” value is reported as inactive: 1.71%. With `O=C1CN(CC(=O)N2CCCCC2)c2ccccc2O1` the Potency was inconclusive: 18.4 µM [activator, single point]. For `COc1ccc(S(=O)(=O)Nc2ccccc2C(=O)Nc2nc(-c3ccc(F)cc3)cs2)cc1OC`, the Potency was inconclusive: 9.2 µM [activator, partial curve, poor fit]. With `O=C(Nc1ccc(Oc2ccccc2)cc1)C1CCCO1` (stereo not given) the Potency was inconclusive: 32.6 µM [activator, partial curve, poor fit]. In the case of `Cc1cc(C)n(-c2nc3ccccc3nc2N2CCCCCC2)n1`, the “re-replication activation” value is reported as inactive: 3.76%. For `CCC(c1nc2ccccc2c(=O)n1-c1nc2ccccc2s1)N1C(=O)c2ccccc2C1=O` (stereo not given), the Potency was active: 7.31 µM. For `CC(C)c1c(C(=O)Nc2ccccc2)c(-c2ccccc2)c(-c2ccc(F)cc2)n1CC[C@@H](O)C[C@@H](O)CC(=O)O`, the Potency was inconclusive: 33.5 µM [activator, single point]. With `Cc1ccc(C)c(S(=O)(=O)N2C(=S)NC(=O)C2C(C)C)c1` (stereo not given) the “re-replication activation” value was inactive: -4.93%. With `Cc1cc(Cl)c2oc(C(=O)N(CCO)Cc3ccccc3)c(C)c2c1` the Potency was inconclusive: 14.6 µM [activator, partial curve, poor fit]. With `COC(=O)c1ccc(N2CCC(C)CC2)c(N)c1` the Potency was inconclusive: 29.1 µM [activator, single point]. In the case of `O=C(CSc1ccc(F)cc1)Nc1ccc(N2CCOCC2)cc1`, the Potency is reported as inconclusive: 5.17 µM [activator, partial curve, poor fit]. With `N/C(=N\c1nc2ccccc2o1)NC(=O)c1ccc(F)cc1` the “re-replication activation” value was inactive: 22.8%. For `Cc1cccc2sc(N(CCCN(C)C)C(=O)c3ccc(S(=O)(=O)N4CCc5ccccc5C4)cc3)nc12`, the Potency was inconclusive: 18.4 µM [activator, single point]. With `CCOC(=O)c1c(NC(=O)CN2C(=O)NC3(CCCCC3C)C2=O)sc(C)c1CC` (stereo not given) the “re-replication activation” value was inactive: 12.8%. In the case of `CC1CCc2c(sc(NC(=O)c3ccc(Cn4cc([N+](=O)[O-])cn4)o3)c2C#N)C1` (stereo not given), the Potency is reported as inconclusive: 18.4 µM [activator, single point]. For `C=CCn1c(=O)c2ccc(C(=O)NCc3ccccc3)cc2n(Cc2ccc(C)cc2)c1=O`, the “re-replication activation” value was inactive: -8.22%. In the case of `CCCNC(=O)NC(=O)COc1ccc2oc3ccccc3c2c1`, the Potency is reported as inconclusive: 0.103 µM [activator, full curve, poor fit]. In the case of `CCN(CC)C(=O)C1=C(C)NC(=S)NC1c1cn(-c2ccccc2)nc1-c1ccc(Cl)cc1` (stereo not given), the Potency is reported as inconclusive: 35.5 µM [activator, partial curve, poor fit].
